# Drug screen on melanoma cell lines: apoptosis marker

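Human melanoma cell lines in 1,536-well plates were treated with two drugs together for 72 h, then fixed, stained and imaged. Values are the share of nuclei positive for cleaved PARP as a percentage of the same share in the DMSO control: 100 is the control level, higher means more apoptosis. Concentrations were fixed for each drug; these are the higher of two levels. The file gives one value for each pair and line, without errors, so small differences may be noise. Basal and induced levels differ widely between cell lines.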 This is part of the screen, not chosen by result. A dash means that no value is listed here.

Drug key:
CHIR-265 (0.4 µM): Cn1c(Nc2ccc(C(F)(F)F)cc2)nc2cc(Oc3ccnc(-c4ncc(C(F)(F)F)[nH]4)c3)ccc21
etoposide (0.1 µM): COc1cc([C@@H]2c3cc4c(cc3[C@@H](O[C@@H]3O[C@@H]5CO[C@@H](C)O[C@H]5[C@H](O)[C@H]3O)[C@H]3COC(=O)[C@H]23)OCO4)cc(OC)c1O
stibogluconate (10 µM): O=C(O)[C@@H]1[O][Sb](=[O])([O][Sb]2(=[O])[O][C@H]([C@H](O)CO)[C@H](O)[C@H](C(=O)O)[O]2)[O][C@H]([C@H](O)CO)[C@@H]1O (some centres not stated)
RKI-983 (2 µM): C[C@@H](N)c1ccc(C(=O)Nc2ccnc3[nH]ccc23)cc1
midostaurin (0.4 µM): CO[C@@H]1[C@H](N(C)C(=O)c2ccccc2)C[C@H]2O[C@]1(C)n1c3ccccc3c3c4c(c5c6ccccc6n2c5c31)C(=O)NC4
FH535 (5 µM): Cc1cc([N+](=O)[O-])ccc1NS(=O)(=O)c1cc(Cl)ccc1Cl
lenalidomide (5 µM): Nc1cccc2c1CN(C1CCC(=O)NC1=O)C2=O (configuration not stated)
IMD-0354 (0.08 µM): O=C(Nc1cc(C(F)(F)F)cc(C(F)(F)F)c1)c1cc(Cl)ccc1O

Combination,COLO 829,SK-MEL-2,IST-MEL1,WM3526,LB2518-MEL,G-361,RPMI-7951,C32,SK-MEL-30,UACC-257,MeWo,MEL-HO
stibogluconate + IMD-0354,61.3,194,43.3,57.5,47.4,50.4,35.1,65.1,80.3,73.2,57.1,85.7
etoposide + RKI-983,171,359,75.4,145,41.7,116,177,1290,145,268,318,128
FH535 + CHIR-265,469,233,116,792,193,710,286,623,189,102,50.4,218
IMD-0354 + midostaurin,169,272,89.2,296,283,154,183,110,63.3,100,222,96.4
midostaurin + CHIR-265,168,199,159,1010,799,993,135,540,74.6,245,245,248
RKI-983 + stibogluconate,72.7,152,49.3,135,35.0,160,88.0,140,132,52.1,303,99.2
IMD-0354 + FH535,176,20.5,154,75.4,-,629,115,75.0,92.6,168,99.6,271
lenalidomide + midostaurin,28.1,205,108,186,102,134,50.2,81.6,162,55.1,74.8,76.7
stibogluconate + lenalidomide,49.1,220,105,158,118,90.2,89.5,38.1,97.5,70.3,121,55.2
RKI-983 + IMD-0354,16.5,201,624,70.5,91.8,158,107,256,101,140,260,248
stibogluconate + etoposide,76.5,281,37.0,52.9,93.9,84.4,99.7,167,106,139,63.0,85.4
CHIR-265 + IMD-0354,124,208,136,409,-,429,71.8,479,93.9,59.2,57.1,73.7
lenalidomide + etoposide,146,220,183,81.7,56.5,147,52.2,44.9,208,95.1,112,74.8
stibogluconate + CHIR-265,73.1,220,198,771,373,362,186,535,171,94.5,129,48.4
RKI-983 + CHIR-265,196,493,225,585,615,567,557,199,312,62.4,141,172
RKI-983 + lenalidomide,74.8,334,149,190,128,145,139,231,182,139,211,53.5
etoposide + IMD-0354,125,406,95.8,195,125,47.7,64.5,104,70.7,42.4,137,92.5
midostaurin + FH535,173,104,275,316,113,101,86.3,114,118,202,323,86.0
CHIR-265 + lenalidomide,128,253,77.9,340,349,595,50.1,389,95.9,57.6,131,154
FH535 + lenalidomide,92.1,17.8,91.2,58.8,73.8,422,66.9,95.1,38.9,102,56.6,201
stibogluconate + FH535,142,84.3,45.6,149,105,316,242,95.6,191,172,37.3,167
stibogluconate + midostaurin,211,330,195,196,141,348,97.0,225,172,159,311,235
CHIR-265 + etoposide,243,713,64.7,459,428,446,273,230,180,98.5,149,120
FH535 + RKI-983,104,99.5,74.6,91.2,705,361,74.7,99.9,262,292,269,356
etoposide + midostaurin,157,208,82.2,161,101,362,230,96.5,86.9,291,87.2,77.6
lenalidomide + IMD-0354,132,94.7,68.1,39.7,69.5,144,133,49.3,46.5,71.5,55.7,119
etoposide + FH535,12.0,22.1,153,68.4,162,242,39.4,84.4,89.9,136,119,228
midostaurin + RKI-983,242,342,119,227,526,401,160,205,237,598,536,106

From a melanoma drug combination screen (doi:10.1371/journal.pone.0140310); values rounded.